This note sets out measurements from article PMC6509187.

These are yes or no findings as the source states them, for the method shown. In cells and extracts the contact can be indirect. A result given as binding can be weak or reduced; the word gives no strength. For part of these data: Where a sequence is shown, tags or fusion partners need not be part of it.

Assay [1] addresses nonmuscle myosin heavy chain IIA (NMHC-IIA) (pig (endogenous in PAMs)). Kind of assay: co-IP; NMHC-IIA immunoprecipitated from membrane proteins (native membrane protein extraction kit) of PRRSV-infected PAMs; immunoblot.
For assay [2] the target is unchanged. Kind of assay: co-IP.
Assay [3] has as its target NMHC-IIA (endogenous in CRL-2843-CD163 cells) (pig (endogenous in CRL-2843-CD163)). Kind of assay: co-IP; CRL-2843-CD163 cells transfected with 3×Flag-DAP12, 3×Flag-DAP12 mutants or Syk-myc-his for 48 h; endogenous NMHC-IIA immunoprecipitated from whole-cell lysates; immunoblot. For orientation: A western blot detects proteins with antibodies after separation by electrophoresis.

B1: DNAX activation protein of 12 kDa (DAP12) (protein, UniProt Q9TU45 26-108)
chain: QRECSCSAVSPGILAGIVLGDLVLTLLIALAVYSLGRLVPRTRGAVDVTRKQHIAETESAYQELQGQRSDVYSDLNTQRQYYK
Regarding B1, the binding entry in assay [1] and in assay [2] was “binds” each time.

B2: 3×Flag-DAP12 (in CRL-2843-CD163 cells) (protein, UniProt Q9TU45 26-108)
chain: B1 chain
B2: the binding entry in assay [3] is “binds”.
